Test results published in the supplement of paper PMC12889115.
Some of the results follow. These are raw signals, not scaled to a control.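 In the initial screen, polymyxin B was used at a concentration that permeabilizes Salmonella's outer membrane but not its inner membrane. Maximum growth was set by DMSO wells with or without polymyxin B. Since plates varied, data were ranked per plate, and compounds giving the lowest OD600 advanced as hits.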

Tested on: Salmonella enterica serovar Typhimurium SL1344
Test: bacterial growth OD600 after 18 h with compound and polymyxin B; higher = more bacterial growth (less inhibition)
Conditions: 50 µM, Mueller-Hinton broth

| Compound | bacterial growth OD600 (polymyxin B 0.75 µg/mL) | bacterial growth OD600 (polymyxin B 1 µg/mL) |
| --- | --- | --- |
| Cc1csc(CN(C)C(=O)c2cc(COc3cccc(F)c3)[nH]n2)n1 | 0.866 |  |
| O=C(CCN1CCOCC1)NC1CCCN(CCc2ccccc2)C1 (centres undefined) |  | 1.12 |
| Cc1cnc(C)c(N2CCN(C(=O)CN3Cc4ccccc4OC(c4ccsc4)C3)CC2)n1 (centres undefined) | 0.016 |  |
| COc1cc(C(=O)NCCCOC(C)C)ccc1OC1CCN(C(C)=O)CC1 |  | 1.02 |
| COCCN1C(=O)CC(CC(=O)N(C)Cc2ccc3nsnc3c2)(c2ccccc2OC)C1=O (centres undefined) | 0.772 |  |
| COc1ccccc1Oc1ncccc1CNC(=O)NC1CCCCC1 | 0.842 |  |
| CCN(CC)CCN(C)C(=O)c1cc(COc2ccc(OC)cc2Cl)on1 |  | 0.861 |
| O=C(CCC(=O)N1CCOc2ccc(CN3CCN(c4ncccn4)CC3)cc2C1)c1ccccc1 | 0.859 |  |
| CCn1ncc(CN2CCC(N3CCC(C(=O)NCc4cccnc4)CC3)CC2)c1C |  | 0.746 |
